We go through four substances from doi:10.1101/2022.08.02.502437.

The chains behind the UniProt entries cited, without tags or fusion partners. Where a name states a change or a piece, a line headed by the entry shows the natural chain unless it says otherwise.
UniProt Q9H1Y0: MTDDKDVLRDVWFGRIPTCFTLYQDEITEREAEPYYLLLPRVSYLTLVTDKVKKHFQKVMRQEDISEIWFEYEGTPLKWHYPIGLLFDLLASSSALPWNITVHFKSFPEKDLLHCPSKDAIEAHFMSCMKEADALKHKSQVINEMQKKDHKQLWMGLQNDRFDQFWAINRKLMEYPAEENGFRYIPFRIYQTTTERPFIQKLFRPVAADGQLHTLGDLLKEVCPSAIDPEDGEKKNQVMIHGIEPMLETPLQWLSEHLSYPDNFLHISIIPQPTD
UniProt O94817: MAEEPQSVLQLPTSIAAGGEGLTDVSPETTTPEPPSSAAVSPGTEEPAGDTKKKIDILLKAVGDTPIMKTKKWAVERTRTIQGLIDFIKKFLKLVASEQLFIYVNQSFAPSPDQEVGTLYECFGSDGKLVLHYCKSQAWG
UniProt Q676U5: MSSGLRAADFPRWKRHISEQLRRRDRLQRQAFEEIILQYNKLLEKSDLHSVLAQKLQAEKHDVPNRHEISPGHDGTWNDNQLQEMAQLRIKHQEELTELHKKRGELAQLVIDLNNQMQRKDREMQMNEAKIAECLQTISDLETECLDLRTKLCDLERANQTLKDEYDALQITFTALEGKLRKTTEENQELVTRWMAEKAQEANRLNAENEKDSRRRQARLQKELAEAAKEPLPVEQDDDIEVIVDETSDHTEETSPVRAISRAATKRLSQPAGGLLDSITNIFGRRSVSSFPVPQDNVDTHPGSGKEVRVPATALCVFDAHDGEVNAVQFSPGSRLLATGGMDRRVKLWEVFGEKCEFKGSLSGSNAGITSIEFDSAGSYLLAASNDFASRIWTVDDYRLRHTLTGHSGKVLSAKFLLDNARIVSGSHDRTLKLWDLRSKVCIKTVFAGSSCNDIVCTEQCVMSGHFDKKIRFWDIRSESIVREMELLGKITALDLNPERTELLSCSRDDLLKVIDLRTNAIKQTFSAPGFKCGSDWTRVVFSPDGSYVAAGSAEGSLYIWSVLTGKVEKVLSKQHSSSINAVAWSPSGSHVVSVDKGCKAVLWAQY

These are yes or no findings as the source states them, for the method shown. Binding seen in cells or lysates may run through a third protein. Some binding calls cover weakened binding; strength is not graded here. For some of these results: Tags and fused reporters may be left off the sequences shown.

Assay [1] has as its target T1, 3xFLAG-ATG7 (UniProt O95352).
T1 sequence: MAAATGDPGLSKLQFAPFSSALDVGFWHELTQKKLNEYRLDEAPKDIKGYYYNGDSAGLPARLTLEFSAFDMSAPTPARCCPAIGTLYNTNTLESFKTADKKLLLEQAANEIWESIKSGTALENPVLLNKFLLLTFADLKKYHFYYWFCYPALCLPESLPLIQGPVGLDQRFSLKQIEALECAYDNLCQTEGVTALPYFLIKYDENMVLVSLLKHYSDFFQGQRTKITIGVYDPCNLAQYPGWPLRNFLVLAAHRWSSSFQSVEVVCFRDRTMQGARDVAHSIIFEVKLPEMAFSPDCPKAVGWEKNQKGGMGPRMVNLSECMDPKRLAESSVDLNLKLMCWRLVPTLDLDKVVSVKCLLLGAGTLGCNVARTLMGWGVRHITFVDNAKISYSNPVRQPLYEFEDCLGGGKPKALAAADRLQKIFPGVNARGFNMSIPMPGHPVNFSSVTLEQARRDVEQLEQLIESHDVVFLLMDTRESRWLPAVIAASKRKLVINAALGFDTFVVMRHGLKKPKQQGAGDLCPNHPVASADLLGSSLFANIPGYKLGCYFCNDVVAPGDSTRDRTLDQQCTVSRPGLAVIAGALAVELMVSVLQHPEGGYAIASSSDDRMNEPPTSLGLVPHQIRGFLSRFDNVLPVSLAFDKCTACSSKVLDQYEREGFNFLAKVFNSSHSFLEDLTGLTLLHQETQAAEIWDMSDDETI
In words: pull-down.

The target of assay [2] is 3xFLAG-ATG3 ΔLIR (human) (UniProt Q9NT62). In words: co-IP.
The target in assay [3] is 3xFLAG-ATG3 C264A (human) (UniProt Q9NT62). Briefly: co-IP.
Assay [4] deals with 3xFLAG-ATG3 wild-type (human) (UniProt Q9NT62). In words: co-IP.
For assay [5], the target named is 3xFLAG-ATG3 W107A (human) (UniProt Q9NT62). Briefly: co-IP.

“ATG3 wild-type, recombinant (from UniProt Q9NT62 1-314) (enzyme)”: the binding result in assay [1] is “binds”.
As for “ATG3 ΔLIR in wild-type ATG3 (all cysteines retained), recombinant (from UniProt Q9NT62 1-314) (enzyme)”, in assay [1], the binding result is reported as “binds”.
Take “ATG5–ATG12 complex (from UniProt Q9H1Y0;O94817)”: the binding entry in assay [2], in assay [3], in assay [4] and in assay [5] was “binds” each time.
On to ATG16L1 (from UniProt Q676U5 1-607), for which the binding result in assay [2], in assay [3], in assay [4] and in assay [5] was “binds” throughout.
